From article doi:10.1101/2025.11.21.689856
These are yes or no findings as the source states them, for the method shown. Binding seen in cells or lysates may run through a third protein. Some entries that bind do so weakly or less than the wild type. For some assays here: Sequences can lack the tags named with a protein. Values belong to the molecule of their own block, whether it stands above or below them.

Columns and labels:
Assay in all cases: co-IP
[1] = target: T1, Biglycan (BGN) (human (endogenous in hPAECs)) (UniProt P21810)
T1 sequence: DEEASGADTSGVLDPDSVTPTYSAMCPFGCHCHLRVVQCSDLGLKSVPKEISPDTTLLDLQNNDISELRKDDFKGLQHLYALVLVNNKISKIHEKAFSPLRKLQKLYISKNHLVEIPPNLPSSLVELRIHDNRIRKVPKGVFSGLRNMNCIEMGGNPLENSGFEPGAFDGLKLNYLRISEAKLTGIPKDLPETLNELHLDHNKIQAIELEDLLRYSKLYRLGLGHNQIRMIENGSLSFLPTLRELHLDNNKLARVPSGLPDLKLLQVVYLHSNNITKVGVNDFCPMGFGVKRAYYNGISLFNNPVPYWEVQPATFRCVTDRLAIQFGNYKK

[2] = target: Thioredoxin domain containing 5 (TXNDC5) (human (endogenous in hPAECs)) (UniProt Q8NBS9)
HA-TXNDC5 C89A (human) = HA-TXNDC5 C89A (human) (UniProt Q8NBS9)
[3] = target: HA-TXNDC5 (wild type) (human) (UniProt Q8NBS9)
HA-TXNDC5 G351A (human) = HA-TXNDC5 G351A (human) (UniProt Q8NBS9)

binding [1]: binds
Molecule: Thioredoxin domain containing 5 (TXNDC5) (from UniProt Q8NBS9 33-432)

binding [2]: binds
B1: Biglycan (BGN) (protein, UniProt P21810 38-368)
chain: T1 sequence

binding (HA-TXNDC5 C89A (human)): binds | binding [3]: binds | binding (HA-TXNDC5 G351A (human)): binds
B2: FLAG-BGN (protein, UniProt P21810 38-368)
chain: T1 sequence
